# Measurements: PubChem BioAssay AID504648 (National Center for Advancing Translational Sciences (NCATS), 2011)
# About 610 (0.16%) of roughly 390,000 compounds were called active. This list was built around the results that the source calls inconclusive (neither active nor inactive); the mix of calls is not that of the screen. Calls come from the whole dose curve; as a rule, active = well fitted inhibition curve with a large enough effect; inconclusive = small, poorly fitted or top-dose-only effect, or effect the other way, or another doubt; inactive = no such curve, though single readings can be large or run the other way. Potencies beside an inconclusive call are fits to weak or partial responses and may not hold up.
# Assay: Nrf2 qHTS screen for inhibitors: counterscreen for cytotoxicity
# Conditions: A549 ARE-Fluc cells, CellTiter-Fluor viability, 18-24 h; series mostly up to 46 µM
# Method in brief: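 A549 ARE_Fluc cells in 5% FBS OPTI-MEM were exposed to compounds in concentration-response for 18-24 h at 37 deg C. Viability was read by CellTiter-Fluor fluorescence (Ex 405/Em 525) after 30 min, before the luciferase read.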
# Potency is the fitted concentration of half-maximal effect.
row,Structure (SMILES),Potency
1,N=c1c2c(-c3ccccc3)c(-c3ccccc3)n(Cc3ccco3)c2ncn1CCO,"inconclusive: 23.1 µM [falling, partial curve, poor fit]"
2,CC(C)c1nc2ccc(C(=O)Nc3ccccc3F)cc2o1,inactive
3,COc1cc(C2C(C#N)=C(N)Oc3cc(N)ccc32)cc(OC)c1OC (stereo not drawn),"inconclusive: 0.58 µM [falling, partial curve, poor fit]"
4,COCCNC(=S)N(CCc1c(C)[nH]c2ccc(Cl)cc12)Cc1cccs1,"inconclusive: 14.6 µM [falling, partial curve, poor fit]"
5,COc1ccc2nc(Nc3nc(-c4cc5ccccc5oc4=O)cs3)sc2c1,"inconclusive: 29.1 µM [activator, partial curve, poor fit]"
6,Nc1nc(=S)[nH]c2c1C1(CCCC1)Cc1ccccc1-2,"inconclusive: 29.1 µM [falling, single point]"
7,O=C(c1cccc(Oc2ccc([N+](=O)[O-])cc2Cl)c1)N1CCCCC1,inactive
8,CC(=O)c1cccc(NS(=O)(=O)c2ccc(N/C=C\C(=O)c3ccc(F)cc3)cc2)c1,"inconclusive: 18.4 µM [falling, single point]"
9,COc1cccc(-c2nn(C)c3sc(C(=O)N4CCN(c5ccccn5)CC4)cc23)c1,"inconclusive: 16.4 µM [falling, partial curve, poor fit]"
10,C=CC(=O)Nc1ccc(CN2C(=O)N(c3c(Cl)c(OC)cc(OC)c3Cl)Cc3cnc(NCCCCN(CC)CC)nc32)cc1,"inconclusive: 20.6 µM [falling, single point]"
11,Cc1ccc(-c2cc(C(=O)NCc3ccccc3Cl)c3ccccc3n2)cc1C,inactive
12,O=C(Nc1ccccc1)N1CCCN(c2ccc(C(F)(F)F)cc2[N+](=O)[O-])CC1,"inconclusive: 32.6 µM [falling, partial curve, poor fit]"
13,CCN(Cc1nc2cc(Cl)ccc2c(=O)[nH]1)C(=O)COc1ccccc1Cc1ccccc1,inactive
14,CCCCOc1cc(C(=O)NCCN(CC)CC)c2ccccc2n1,inactive
15,CN(C)c1ccc(NC2=C(Cl)C(=O)c3ccccc3C2=O)cc1,"inconclusive: 18.4 µM [falling, single point]"
16,CCOc1ccc(NC(=O)c2ncoc2-c2ccco2)cc1,"inconclusive: 29.1 µM [activator, partial curve, poor fit]"
17,CCn1ncc(/C=C2/SC(=S)NC2=O)c1C,"inconclusive: 23.1 µM [falling, partial curve, poor fit]"
18,CCN(CC(=O)NC(C)(C)C)Cc1nc2c(Br)cc(Br)cc2c(=O)[nH]1,inactive

# A second format for some results above:
row	Structure (SMILES)	Potency
9	COc1cccc(-c2nn(C)c3sc(C(=O)N4CCN(c5ccccn5)CC4)cc23)c1	inconclusive: 16.4 µM [falling, partial curve, poor fit]
10	C=CC(=O)Nc1ccc(CN2C(=O)N(c3c(Cl)c(OC)cc(OC)c3Cl)Cc3cnc(NCCCCN(CC)CC)nc32)cc1	inconclusive: 20.6 µM [falling, single point]
